Laboratory results from PubChem BioAssay AID1347426 (Functional Genomics Laboratory (NCATS/FGL), 2020).
Screen size: about 31,000 sequences; about 1,400 (4.5%) were called active.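 Rule for the calls: active = median seed-adjusted z-score above 1 or below -1; inactive = the rest.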 Some of the results follow.

assay: Novel Modifiers of Survival Motor Neuron (SMN) Protein: Gene Identification via Genome-wide siRNA Screen; settings: HEK293T SMN2-luciferase reporter, siRNA knockdown, 72 h; actives lie on both sides;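 note: luminescence tracks full-length SMN protein made from the SMN2 reporter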
How it was run: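 Steps: spot 1 pmol siRNA, add Lipofectamine RNAiMax in serum-free DMEM, seed HEK293T SMN2–luciferase reporter cells; incubate 72 h at 37 °C; add ONE-Glo; normalize luminescence to control siRNA, log10, MAD. Candidates: |MAD| > 1.0.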

Row | Sequence | median seed-adjusted z-score
1 | GGAGCUCAUCGAGAUCUCATT against CABP2 | inactive: 0.323
2 | CCGAUUGUACAGUAAAUUUTT against PTS | inactive: -0.103
3 | CAUCACCACUAGCAGCAUATT against ANK3 | inactive: 0.0252
4 | GGAUAAUAAGGAUCUAUUUTT against CPNE3 | inactive: 0.109
5 | GCUAUACCCUCGUUGAACATT against ZNF416 | inactive: 0.668
6 | CAUUCAACCGCAUCGCAAATT against ZNF624 | inactive: 0.378
7 | GGAUCUUUGCAGUUGGGUATT against MACF1 | inactive: -0.146
8 | CGGUUUGCCUCAUUCCGAATT against GLDC | inactive: 0
9 | GGAACUAAACUUGAUCUUATT against RAC1 | inactive: -0.0348
10 | CGAUGAUGUGCUGACUAAATT against ZNRF1 | inactive: -0.808
11 | GGAGUGAUUCACUUACUUUTT against DDX3Y | inactive: -0.149
12 | CACUCGCACACCAACCUUATT against PIR | inactive: 0.169
13 | GAUGGAUUCUUGUUCCGUUTT against KCTD16 | inactive: 0.00219
14 | GGCUUGAAGUCAUCGAACATT against MAP3K10 | inactive: 0.201
15 | GAACCGUAAUGAUGAUAGATT against SFRS15 | inactive: 0.22
16 | GCUUUAUCCACGACAAUGATT against DSCAML1 | inactive: 0.237
17 | CCAGCAUCCCUAGCUCAGATT against SYVN1 | active: -1.41
18 | GGGUUUGCACUGAAACGAATT against CIR | inactive: -0.197
19 | GGAAGAUUACUACCAUUUUTT against PCSK6 | inactive: 0
20 | CGUCUUUAGCUGUCAAUAATT against RBM5 | inactive: -0.289
21 | AGGGAGUUUCUUGCAGUGATT against ADD2 | inactive: -0.176
22 | ACACUAUCCUGGAUAUUCUTT against GMPR | inactive: 0.0757

Row | Sequence | median seed-adjusted z-score
23 | GGACUUCAGUUAUAGUUCATT against ZNF227 | inactive: 0.0194
24 | GCACGAAUGAGGACGAUGATT against SPRY4 | active: -1.23
25 | CACCAACACGAGAAAGUCATT against GLT8D2 | inactive: -0.619
26 | GGUUGGAACUCGUUCCUCATT against NLGN4X | inactive: -0.1
27 | GCACCUUAAUUAAGAUCUUTT against ITGA9 | inactive: 0
28 | GCUGUUCAGUGUGCCUGCATT against RNF152 | inactive: -0.745
29 | CCGGUAUUAUUCUAAUGAATT against TMTC2 | inactive: 0.0277
30 | GCAACUAUUUUGUGGGCUUTT against PORCN | inactive: 0.214
31 | CUUGUUACCUUGUUUGUCATT against GRM1 | inactive: 0.0376
32 | GUCUGGAACUUGCAGUGCATT against RDH8 | inactive: -0.657
33 | GAAUGAUAAUGGGUAUUAUTT against SEC24D | inactive: 0.529
34 | AGACUAUUCCCUCCGUUUATT against GFI1 | inactive: -0.047
35 | AAGCAGGACUUCAACCGUATT against RAPGEF3 | inactive: -0.481
36 | CCAACAGGAGAGUACGUGATT against STRADA | inactive: 0.415
37 | CGGAAUUUGUCAUUCAAGATT against RCN2 | inactive: -0.112
38 | GCAUGGAUCCGAAGUCGAATT against ABCA12 | inactive: 0.0759
39 | CGAUGGUUGACAAUCCAGATT against NDUFS5 | active: -1.35
40 | GAUGAUGGAUGUCUAGAAATT against SCG5 | inactive: 0.573
41 | GCGACGACCUCGACUUUGATT against SLC32A1 | inactive: -0.251
42 | GGAUAUGGAUUGCGUAUAUTT against IL13RA2 | inactive: 0.113
43 | GGCCUACGUUUGAAAGACATT against ZNF792 | inactive: 0
44 | GACCAUCUCUUAUGACCCATT against CA5B | inactive: 0.317

Row | Sequence | median seed-adjusted z-score
45 | CAACAAGAAUACACGGAAATT against TRIM25 | inactive: 0.859
46 | GCACAACGUGAUUAAGACATT against PSMD3 | inactive: 0.47
47 | ACUUAGAACUCGAGAUUCATT against OLIG1 | inactive: -0.387
48 | CAAGCAAGGUGCAAGAACATT against KEL | inactive: 0
49 | GGAUAAUCUAUGAAGACUATT against RGS20 | inactive: -0.34
50 | CAGCAGAGGAUAUCACUUATT against ZNF202 | inactive: 0.534
51 | GGCUUCUUCUCGUGCAUCATT against KCNK3 | inactive: 0
52 | AACUGGACCUUAAAAAGAATT against POU4F3 | inactive: 0
53 | GGUUUUCCGCAGCUACGUUTT against BAK1 | inactive: 0.0419
54 | GCAUAUCAAUCUCCAGGGATT against NLRC3 | inactive: 0.323
55 | GGAAUAAUCUGCCUAAAUATT against APOBEC3G | inactive: 0.00539
56 | GUUACUCACAUUUUCUUUATT against AKR7A3 | inactive: 0.455
57 | GAGCGAUCGUAGAAACACATT against HRK | inactive: 0.217
58 | CCCUGUUCAUUGCCCUGUATT against FGR | inactive: 0.596
59 | CCUUGGAGCCCAUAACAUATT against CMA1 | inactive: -0.0475
60 | CUACCUUGCCUGCUCCUAUTT against KDELR2 | inactive: 0
61 | GCCACGUCCAUAGUUCUGATT against FUT7 | inactive: -0.146
62 | GAGUAUCCAUCGGUAUCUATT against ZBTB11 | inactive: -0.105
63 | GGAGCUCUGUUGUGGAGAATT against FCGRT | inactive: -0.00396
64 | GGAUUUCAUCGAGAACCGATT against MKRN2 | inactive: 0
65 | GGAAUUACAACAUAUCGUUTT against TNFSF11 | inactive: 0.0212
66 | GACGCAUUGUGGAGAGGGATT against COASY | inactive: 0

Quoted from above: entries 43–47
Row | Sequence | median seed-adjusted z-score
43 | GGCCUACGUUUGAAAGACATT against ZNF792 | inactive: 0
44 | GACCAUCUCUUAUGACCCATT against CA5B | inactive: 0.317
45 | CAACAAGAAUACACGGAAATT against TRIM25 | inactive: 0.859
46 | GCACAACGUGAUUAAGACATT against PSMD3 | inactive: 0.47
47 | ACUUAGAACUCGAGAUUCATT against OLIG1 | inactive: -0.387

The listing continues:

Row | Sequence | median seed-adjusted z-score
67 | GAUGUGAAAUGGAGAAGUATT against KLF5 | inactive: -0.338
68 | GGUAGUUAUUACUAGUAAATT against GBE1 | inactive: 0
69 | GAAUGAGGCUAUACAAAAUTT against GLYAT | inactive: 0.68
70 | GGAUCAGCUUCGUACGGUUTT against LAMA4 | inactive: 0.691
71 | GGUCCCAUCUUGUUGGAUATT against ZNF292 | inactive: -0.481
72 | CCAUGAUGAUUAUCUCGUUTT against RNF149 | inactive: -0.17
73 | GGACCAUCAGAGUCGAAGATT against FLNB | inactive: 0.243
74 | GAGCUGAGGUGGUAAAGCATT against YARS | inactive: 0.0197
75 | GUCUUGUAGAAAUCUCAGATT against RFC3 | inactive: 0.733
76 | CAAUCAAGCUGUCCACGAATT against EPHA5 | inactive: -0.00876
77 | GGAUGCUUCUGCUGAACAATT against SSPO | inactive: 0.397
78 | GGAUACUUUUUGCUAACUUTT against MYO3A | inactive: 0.0776
79 | GCACGCUUAUGGUGGGUGATT against PDXP | inactive: -0.302
80 | GGACUGGGAUGAUACACCUTT against SBF2 | inactive: 0.569
81 | GAAUGUCCCUUUAACUGCATT against NFXL1 | inactive: 0.118
82 | ACAUCUGCCUGAUCUCAUATT against INDO | inactive: 0.0511
83 | GCAAGGCACGGGCUAAAGUTT against AKT2 | inactive: 0
84 | ACUUCUUCCAUGUAGCAUUTT against CD1D | inactive: -0.579
85 | GCACCUUCAUGGACGGCUATT against NR4A1 | inactive: -0.207
86 | GGGUCCGAAUACUUCGUGATT against MSLN | inactive: -0.344
87 | GAUCGUGUGAUGUCAAAUATT against FLNB | inactive: 0.243
88 | CAUGGUGUCUGGUACUUCATT against MAG | inactive: -0.0667

Row | Sequence | median seed-adjusted z-score
89 | GCAUUACCGCGAUGAAUUATT against DNAI1 | inactive: -0.783
90 | CCCUAUGAAUGUUACGAAUTT against RBAK | inactive: 0
91 | AGGCGAUCAUUAUUUCGAATT against DUSP12 | inactive: -0.0123
92 | CCACGUUUUAACUUUCUAATT against MBTPS2 | inactive: -0.324
93 | GCAUGCCGUGAAACGUAUATT against NUF2 | inactive: -0.658
94 | GCACCGUCAAGAUUACGGATT against EIF2AK4 | inactive: -0.188
95 | UCCUCCGCCUGGAAACUCATT against OTX1 | inactive: -0.475
96 | CCCACAAUUUGUGACCGAUTT against ABCE1 | inactive: -0.0527
97 | GUUCCAUCCUGAUUCAAAUTT against PIGM | active: 1.36
98 | AGGUGAUCGUCUCCGUCCATT against TNFRSF14 | inactive: 0
99 | GCAUCUUCACCAAAGUCAUTT against RHEBL1 | inactive: -0.268
100 | UGGAGUAAAUAGUUCUAAUTT against UBE2V1 | inactive: 0.745
101 | CUACGGAUGUUUGACUUGATT against CALB2 | inactive: 0
102 | CAAGGACAAAUUUCCCGUUTT against HOXD8 | inactive: -0.883
103 | CAGGUUCUCUAAUUGAACATT against NFX1 | inactive: -0.256
104 | GACUUAUCCUAUAAUUACUTT against TLR2 | inactive: -0.0278
105 | CCAUCAUCGUUAUCUACUUTT against SLC5A1 | inactive: -0.812
106 | GAAGAACGGGUGGUACGUATT against JARID2 | inactive: 0.115
107 | GCAGCUCCCUCAACACCUUTT against TBCB | inactive: 0.69
108 | GUAUCGCACAGGUUCAGUATT against PKP4 | inactive: 0.368
109 | GCAUAGCCCAUUAUAGACATT against KCNA1 | inactive: -0.277
